Data reported in publication PMC7606512.
No constants are given. Whether binding was seen depends on the method and setting. Binding seen in cells or lysates may run through a third protein. Some entries that bind do so weakly or less than the wild type.

Sequences of proteins named here, by UniProt entry; tags and fusion partners are left off. Residues count along the entry.
UniProt Q9Y4L5, residues 1-200: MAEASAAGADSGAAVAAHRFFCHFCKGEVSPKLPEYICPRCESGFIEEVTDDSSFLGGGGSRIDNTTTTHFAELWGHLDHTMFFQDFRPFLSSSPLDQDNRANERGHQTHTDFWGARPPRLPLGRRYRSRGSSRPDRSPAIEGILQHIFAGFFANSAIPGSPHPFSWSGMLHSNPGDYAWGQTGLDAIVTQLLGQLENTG
UniProt Q7Z434: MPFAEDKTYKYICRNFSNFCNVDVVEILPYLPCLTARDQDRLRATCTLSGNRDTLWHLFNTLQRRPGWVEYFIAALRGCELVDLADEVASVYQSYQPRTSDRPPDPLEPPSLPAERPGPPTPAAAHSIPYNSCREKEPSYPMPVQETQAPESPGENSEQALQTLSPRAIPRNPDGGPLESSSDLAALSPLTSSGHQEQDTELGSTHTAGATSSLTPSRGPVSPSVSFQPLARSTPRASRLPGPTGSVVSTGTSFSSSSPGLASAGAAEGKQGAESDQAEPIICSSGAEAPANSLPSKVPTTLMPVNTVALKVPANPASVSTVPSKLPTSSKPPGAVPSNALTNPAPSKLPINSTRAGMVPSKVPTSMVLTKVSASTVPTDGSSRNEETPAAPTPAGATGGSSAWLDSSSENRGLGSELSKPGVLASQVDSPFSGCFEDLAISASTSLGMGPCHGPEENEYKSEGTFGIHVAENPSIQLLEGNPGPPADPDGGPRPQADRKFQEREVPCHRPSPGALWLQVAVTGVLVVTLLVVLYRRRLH
UniProt Q9D0C1: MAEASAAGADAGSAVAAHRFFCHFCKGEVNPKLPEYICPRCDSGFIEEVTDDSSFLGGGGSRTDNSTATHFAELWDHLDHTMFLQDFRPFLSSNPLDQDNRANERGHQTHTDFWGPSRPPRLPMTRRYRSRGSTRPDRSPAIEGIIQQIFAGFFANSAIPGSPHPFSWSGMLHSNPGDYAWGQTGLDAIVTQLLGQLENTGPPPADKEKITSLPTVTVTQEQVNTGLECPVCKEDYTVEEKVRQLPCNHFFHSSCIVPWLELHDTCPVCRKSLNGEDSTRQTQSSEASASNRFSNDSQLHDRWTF

Assays:
[1] = molecular target: GST-RNF115 (1–200aa) (human) (UniProt Q9Y4L5); assay: pull-down; purified GST or GST-RNF115 (1–200 aa) (5 μg) incubated with in vitro translated FLAG-MAVS at 4 °C overnight, glutathione agarose 2 h in PBS with protease inhibitors; immunoblot; only the target purified
[2] = molecular target: MAVS (transfected in HEK293, tag FLAG or HA not told) (UniProt Q7Z434); assay: co-IP; HEK293 cells transiently transfected; lysis buffer 20 mM Tris–HCl pH 7.4–7.5, 150 mM NaCl, 1 mM EDTA, 1% Nonidet P-40; antibody (anti-FLAG) and protein G agarose 2–4 h; immunoblot
[3] = molecular target: T1, MAVS, endogenous in mouse BMDCs and MLFs (mouse (endogenous in BMDCs and MLFs)) (UniProt Q8VCF0); assay: proximity ligation
T1 sequence: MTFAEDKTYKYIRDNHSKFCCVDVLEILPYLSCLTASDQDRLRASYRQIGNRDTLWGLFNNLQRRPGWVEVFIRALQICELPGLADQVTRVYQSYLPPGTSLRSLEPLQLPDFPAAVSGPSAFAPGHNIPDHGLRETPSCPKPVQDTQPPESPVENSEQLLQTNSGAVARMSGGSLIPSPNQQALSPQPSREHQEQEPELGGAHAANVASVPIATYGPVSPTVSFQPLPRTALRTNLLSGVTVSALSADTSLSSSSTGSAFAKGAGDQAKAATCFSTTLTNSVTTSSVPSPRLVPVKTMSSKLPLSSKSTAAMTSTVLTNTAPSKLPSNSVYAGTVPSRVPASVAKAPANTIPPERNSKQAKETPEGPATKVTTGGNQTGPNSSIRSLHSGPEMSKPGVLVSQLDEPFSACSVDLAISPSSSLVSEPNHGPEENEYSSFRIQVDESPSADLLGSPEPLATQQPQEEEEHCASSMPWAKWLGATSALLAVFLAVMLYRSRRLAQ

[4] = molecular target: T1, MAVS, endogenous in mouse BMDCs and MLFs (mouse (endogenous in BMDCs and MLFs)); assay: co-IP
[5] = molecular target: T2, MITA, endogenous in mouse MLFs (mouse (endogenous in MLFs)) (UniProt Q3TBT3); assay: co-IP; endogenous proteins; THP-1 cells (also stably shCon or shRNF115#2) and MLFs (Rnf115+/+ and Rnf115−/−) infected with HSV-1; immunoprecipitated with anti-MITA (Fig. 7f); immunoblot
T2 sequence: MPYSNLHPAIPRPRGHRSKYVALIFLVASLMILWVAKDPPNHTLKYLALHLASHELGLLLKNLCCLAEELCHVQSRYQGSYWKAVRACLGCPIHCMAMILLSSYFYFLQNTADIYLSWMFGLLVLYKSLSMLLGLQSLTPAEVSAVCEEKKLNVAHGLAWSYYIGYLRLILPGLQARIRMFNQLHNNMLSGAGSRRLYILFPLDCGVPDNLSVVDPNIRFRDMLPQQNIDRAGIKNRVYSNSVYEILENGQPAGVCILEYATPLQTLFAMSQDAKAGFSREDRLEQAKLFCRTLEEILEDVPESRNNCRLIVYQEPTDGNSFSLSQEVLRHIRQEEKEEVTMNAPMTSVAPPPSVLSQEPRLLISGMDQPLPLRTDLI

## FLAG-MAVS, in vitro translated (from UniProt Q7Z434 1-540)
[1]
  binding: binds

## RNF115 N-terminal domain (aa 1–200), transfected in HEK293 (from UniProt Q9Y4L5 1-200) (domain or fragment)
[2]
  binding: binds

## RNF115, endogenous in mouse BMDCs and MLFs (from UniProt Q9D0C1 1-305) (enzyme)
[3]
  binding: binds
[4]
  binding: binds
[5]
  binding: binds
